PubChem BioAssay AID1259299, Sanger Institute – 2017
Test: 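Kinases and colorectal mutated genes needed by colorectal cancer cells, with or without drugs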 (primary screen). System: human CAR1 colorectal cancer cells. Knock-down reagent: siRNA pool against human genes. Treatment: anchor drug BYL719 1 µM, cetuximab 5 µg/ml or trametinib 10 nM, or DMSO vehicle alone; exposure length not given. Measured: 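Cell viability as fraction of non-targeting siRNA wells, mean of replicates, with robust z-score and a synergy score for each of three drugs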. Reading the numbers: viability robust z-score, knock-down alone and viability, knock-down alone (DMSO): higher = more viable cells. Units: viability, knock-down alone (DMSO) in fraction of control. Hit rule: 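a gene is called essential if its knock-down-alone viability z-score drops under -3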. Calls: active = essential (knock-down alone); inactive = no change.
In all, the deposit lists 794 reagents; this is an unselected part. Over the whole deposit, 9 (1.1%) got an active call. 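Calls rest on knock-down alone; synergy scores play no part in calls, and no gene passed the synergy cut.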 Viability is capped at 1. Further read-outs or replicates are left out here. The record does not give: the amount of reagent, the time to read-out.

ALPK1: viability robust z-score, knock-down alone = -0.17; viability, knock-down alone (DMSO) = 0.911; outcome = inactive
FGFR2: viability robust z-score, knock-down alone = 0.789; viability, knock-down alone (DMSO) = 1; outcome = inactive
EFNA4: viability robust z-score, knock-down alone = 0.789; viability, knock-down alone (DMSO) = 1; outcome = inactive
CTCF: viability robust z-score, knock-down alone = 0.0977; viability, knock-down alone (DMSO) = 0.936; outcome = inactive
CEP290: viability robust z-score, knock-down alone = 0.789; viability, knock-down alone (DMSO) = 1; outcome = inactive
PDGFRL: viability robust z-score, knock-down alone = -0.541; viability, knock-down alone (DMSO) = 0.877; outcome = inactive
TSSK4: viability robust z-score, knock-down alone = 0.789; viability, knock-down alone (DMSO) = 1; outcome = inactive
PCBP1: viability robust z-score, knock-down alone = 0.0472; viability, knock-down alone (DMSO) = 0.932; outcome = inactive
LMTK3: viability robust z-score, knock-down alone = 0.789; viability, knock-down alone (DMSO) = 1; outcome = inactive
AKT2: viability robust z-score, knock-down alone = -1.38; viability, knock-down alone (DMSO) = 0.8; outcome = inactive
BLK: viability robust z-score, knock-down alone = 0.568; viability, knock-down alone (DMSO) = 0.98; outcome = inactive
TAOK2: viability robust z-score, knock-down alone = 0.789; viability, knock-down alone (DMSO) = 1; outcome = inactive
PTGS1: viability robust z-score, knock-down alone = -1.35; viability, knock-down alone (DMSO) = 0.802; outcome = inactive
ITSN1: viability robust z-score, knock-down alone = -0.358; viability, knock-down alone (DMSO) = 0.894; outcome = inactive
CERT1: viability robust z-score, knock-down alone = 0.61; viability, knock-down alone (DMSO) = 0.983; outcome = inactive
PFKFB1: viability robust z-score, knock-down alone = -0.354; viability, knock-down alone (DMSO) = 0.894; outcome = inactive
MAP3K11: viability robust z-score, knock-down alone = 0.789; viability, knock-down alone (DMSO) = 1; outcome = inactive
SBK1: viability robust z-score, knock-down alone = 0.789; viability, knock-down alone (DMSO) = 1; outcome = inactive
ACVR1: viability robust z-score, knock-down alone = -0.162; viability, knock-down alone (DMSO) = 0.912; outcome = inactive
GRK3: viability robust z-score, knock-down alone = 0.789; viability, knock-down alone (DMSO) = 1; outcome = inactive
PI4K2A: viability robust z-score, knock-down alone = 0.179; viability, knock-down alone (DMSO) = 0.944; outcome = inactive
RBKS: viability robust z-score, knock-down alone = 0.789; viability, knock-down alone (DMSO) = 1; outcome = inactive
AK3: viability robust z-score, knock-down alone = -0.111; viability, knock-down alone (DMSO) = 0.917; outcome = inactive
CHD4: viability robust z-score, knock-down alone = -0.441; viability, knock-down alone (DMSO) = 0.886; outcome = inactive
GCK: viability robust z-score, knock-down alone = -0.512; viability, knock-down alone (DMSO) = 0.88; outcome = inactive
GK: viability robust z-score, knock-down alone = 0.789; viability, knock-down alone (DMSO) = 1; outcome = inactive
GUCY2EP: viability robust z-score, knock-down alone = -0.958; viability, knock-down alone (DMSO) = 0.839; outcome = inactive
BRD2: viability robust z-score, knock-down alone = 0.537; viability, knock-down alone (DMSO) = 0.977; outcome = inactive
